Test results published in US20070089183A1, “Size and/or growth engineering by modulation of the interaction between calmodulin, and brassinosteroid biosynthetic enzymes and orthologs therof” (Washington State University, priority 2005, published 2007).
Not every detail of the peptide structures is certain; ends, links or a residue may be inferred. Where no end group is shown, it is not given here.

What was measured:
Experiment in all cases: gel mobility shift assay
PCM6 = PCM6 (Solanum tuberosum, UniProt Q7DMN9); format: binding, potato; details: 1 mM Ca^2+
PCM1 = PCM1 (Solanum tuberosum, UniProt P13868); format: binding, potato; details: conserved CaM isoform
bovine CaM = bovine CaM (Bos taurus, UniProt P62157); format: binding; details: conserved CaM isoform
Arabidopsis CaM9 = molecular target: T1, Arabidopsis CaM9 (Arabidopsis thaliana, UniProt Q9S744); format: binding; details: divergent CaM isoform; data not shown
T1 sequence (Q9S744 1-151): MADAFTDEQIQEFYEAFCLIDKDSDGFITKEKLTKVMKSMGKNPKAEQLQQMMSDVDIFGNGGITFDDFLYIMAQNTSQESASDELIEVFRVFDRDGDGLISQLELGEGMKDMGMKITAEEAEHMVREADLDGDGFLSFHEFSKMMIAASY

Sequence: CRKKYRAIGTFMSVYYKSKKGR [DWF1 CaM-binding peptide (518-539)]
- CaM-binding ability (PCM6): confirmed
- binding to CaM isoform (PCM1): confirmed to bind
- binding to CaM isoform (bovine CaM): confirmed to bind
- binding to CaM isoform (Arabidopsis CaM9): not
